Laboratory results: patent publication US20180305423A1 (OKLAHOMA MEDICAL RESEARCH FOUNDATION, published 2018)
These are yes or no findings as the source states them, for the method shown. For part of these data: Binding seen in cells or lysates may run through a third protein. Some entries that bind do so weakly or less than the wild type.

Amino acid sequences for entries named in this document (tags omitted). Residues count along the entry.
UniProt Q60751, residues 31-1373: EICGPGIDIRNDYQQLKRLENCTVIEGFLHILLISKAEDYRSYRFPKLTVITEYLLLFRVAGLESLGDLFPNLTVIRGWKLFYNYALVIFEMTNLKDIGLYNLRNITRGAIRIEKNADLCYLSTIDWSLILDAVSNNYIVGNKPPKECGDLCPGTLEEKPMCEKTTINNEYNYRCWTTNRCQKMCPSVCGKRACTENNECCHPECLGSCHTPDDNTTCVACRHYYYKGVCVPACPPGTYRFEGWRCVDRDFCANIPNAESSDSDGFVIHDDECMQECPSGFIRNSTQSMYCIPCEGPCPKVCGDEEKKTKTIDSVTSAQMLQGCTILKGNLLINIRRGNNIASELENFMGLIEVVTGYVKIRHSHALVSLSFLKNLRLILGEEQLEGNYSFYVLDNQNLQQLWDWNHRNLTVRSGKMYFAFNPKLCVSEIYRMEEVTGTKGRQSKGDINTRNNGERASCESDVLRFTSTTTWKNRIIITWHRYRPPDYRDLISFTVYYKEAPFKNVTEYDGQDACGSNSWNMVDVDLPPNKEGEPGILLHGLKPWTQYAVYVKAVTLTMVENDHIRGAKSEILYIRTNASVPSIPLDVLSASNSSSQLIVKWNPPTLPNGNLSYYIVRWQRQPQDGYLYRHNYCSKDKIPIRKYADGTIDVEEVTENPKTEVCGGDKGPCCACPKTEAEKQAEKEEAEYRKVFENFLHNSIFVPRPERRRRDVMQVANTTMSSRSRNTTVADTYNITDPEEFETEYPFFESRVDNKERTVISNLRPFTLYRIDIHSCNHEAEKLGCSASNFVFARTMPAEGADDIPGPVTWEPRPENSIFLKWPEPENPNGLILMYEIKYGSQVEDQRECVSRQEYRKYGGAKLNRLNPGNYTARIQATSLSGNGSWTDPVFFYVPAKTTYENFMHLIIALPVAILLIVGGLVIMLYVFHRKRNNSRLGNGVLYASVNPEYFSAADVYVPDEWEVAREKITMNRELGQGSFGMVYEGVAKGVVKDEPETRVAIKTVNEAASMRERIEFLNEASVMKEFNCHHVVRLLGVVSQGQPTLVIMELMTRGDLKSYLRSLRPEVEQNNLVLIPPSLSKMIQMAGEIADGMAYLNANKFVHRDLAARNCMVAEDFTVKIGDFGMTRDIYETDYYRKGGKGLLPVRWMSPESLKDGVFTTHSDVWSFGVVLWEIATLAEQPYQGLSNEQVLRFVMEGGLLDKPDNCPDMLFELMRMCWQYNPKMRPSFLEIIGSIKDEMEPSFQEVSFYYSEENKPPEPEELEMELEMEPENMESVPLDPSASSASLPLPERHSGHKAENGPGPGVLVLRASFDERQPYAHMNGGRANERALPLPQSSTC
UniProt P15208, residues 28-1372: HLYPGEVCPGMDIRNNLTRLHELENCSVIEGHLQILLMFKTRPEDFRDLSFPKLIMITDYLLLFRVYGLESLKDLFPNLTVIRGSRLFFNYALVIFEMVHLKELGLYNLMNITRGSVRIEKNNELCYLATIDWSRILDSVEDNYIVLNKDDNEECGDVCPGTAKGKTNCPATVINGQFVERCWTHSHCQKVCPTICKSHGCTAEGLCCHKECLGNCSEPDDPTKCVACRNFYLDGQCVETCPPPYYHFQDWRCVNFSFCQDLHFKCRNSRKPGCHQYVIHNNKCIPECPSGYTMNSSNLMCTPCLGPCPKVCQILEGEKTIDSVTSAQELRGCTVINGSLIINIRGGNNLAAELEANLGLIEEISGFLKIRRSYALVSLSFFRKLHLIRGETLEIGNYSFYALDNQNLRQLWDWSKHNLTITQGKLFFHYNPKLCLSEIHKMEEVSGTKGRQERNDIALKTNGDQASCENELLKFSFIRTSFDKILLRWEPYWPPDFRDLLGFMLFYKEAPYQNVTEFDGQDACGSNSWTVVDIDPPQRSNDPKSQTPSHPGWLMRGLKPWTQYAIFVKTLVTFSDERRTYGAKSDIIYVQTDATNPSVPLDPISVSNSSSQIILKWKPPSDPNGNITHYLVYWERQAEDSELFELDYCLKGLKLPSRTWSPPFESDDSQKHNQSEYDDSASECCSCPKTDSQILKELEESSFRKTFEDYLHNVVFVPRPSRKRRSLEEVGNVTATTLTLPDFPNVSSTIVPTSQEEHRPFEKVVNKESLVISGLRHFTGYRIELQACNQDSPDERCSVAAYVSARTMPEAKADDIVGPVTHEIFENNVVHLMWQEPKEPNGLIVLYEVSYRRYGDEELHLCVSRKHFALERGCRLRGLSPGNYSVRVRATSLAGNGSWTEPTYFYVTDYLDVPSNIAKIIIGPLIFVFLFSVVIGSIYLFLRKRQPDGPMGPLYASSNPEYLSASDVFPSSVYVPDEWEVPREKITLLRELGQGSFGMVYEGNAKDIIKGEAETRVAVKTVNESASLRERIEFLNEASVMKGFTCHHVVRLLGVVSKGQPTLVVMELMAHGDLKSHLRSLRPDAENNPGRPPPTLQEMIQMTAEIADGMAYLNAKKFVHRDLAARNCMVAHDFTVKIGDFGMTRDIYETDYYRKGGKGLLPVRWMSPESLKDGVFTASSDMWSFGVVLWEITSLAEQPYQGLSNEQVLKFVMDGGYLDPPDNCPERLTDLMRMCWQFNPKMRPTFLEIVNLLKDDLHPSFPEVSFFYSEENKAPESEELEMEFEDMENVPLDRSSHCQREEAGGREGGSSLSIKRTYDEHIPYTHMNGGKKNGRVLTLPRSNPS

Key:
[1] = biological target: Insulin-like growth factor receptor (IGF-1R) (UniProt Q60751); assay: IP analysis in 3T3-L1 cells (FIG. 29)
Insulin receptor (IR) [2] = biological target: Insulin receptor (IR) (UniProt P15208); assay: IP analysis in 3T3-L1 cells (FIG. 29)
[3] = biological target: Insulin-like growth factor receptor (IGF-1R) (UniProt Q60751); assay: co-IP with anti-epsin 1 from 3T3-L1 pre-adipocytes with or without insulin, blot for IGF-1R
[4] = biological target: Insulin-like growth factor receptor (IGF-1R) (UniProt Q60751); assay: IP analysis in 3T3-L1 pre-adipocytes (FIG. 29)
Insulin receptor (IR) [5] = biological target: Insulin receptor (IR) (UniProt P15208); assay: IP analysis in 3T3-L1 pre-adipocytes (FIG. 29)
Insulin receptor (IR) [6] = biological target: Insulin receptor (IR) (UniProt P15208); assay: co-IP with anti-epsin 1 from 3T3-L1 pre-adipocytes with or without insulin, blot printed as 'IR1'

- binding [1]: binds
- binding (Insulin receptor (IR) [2]): binds
- binding [3]: binds
- binding [4]: binds
- binding (Insulin receptor (IR) [5]): binds
- binding (Insulin receptor (IR) [6]): binds
B1: Epsin 1 (endogenous, MAEC and 3T3-L1 cells) (other, mouse, UniProt Q80VP1 1-575, looked up)
chain: MSTSSLRRQMKNIVHNYSEAEIKVREATSNDPWGPSSSLMSEIADLTYNVVAFSEIMSMIWKRLNDHGKNWRHVYKAMTLMEYLIKTGSERVSQQCKENMYAVQTLKDFQYVDRDGKDQGVNVREKAKQLVALLRDEDRLREERAHALKTKEKLAQTATASSAAVGSGPPPEAEQAWPQSSGEEELQLQLALAMSKEEADQPPSCGPEDDVQLQLALSLSREEHDKEERIRRGDDLRLQMAIEESKRETGGKEESSLMDLADVFTTPAPPQASDPWGGPASVPTAVPVAAAASDPWGGPAVPPAADPWGGAAPTPASGDPWRPAAPTGPSVDPWGGTPAPAAGEGPTPDPWGSSDGGAPVSGPPSSDPWAPAPAFSDPWGGSPAKPSSNGTAVGGFDTEPDEFSDFDRLRTALPTSGSSTGELELLAGEVPARSPGAFDMSGVGGSLAESVGSPPPAATPTPTPPTRKTPESFLGPNAALVDLDSLVSRPGPTPPGSKASNPFLPSGAPPTGPSVTNPFQPAPPATLTLNQLRLSPVPPVPGAPPTYISPLGGGPGLPPMMPPGPPAPNTNPFLL
notes: also called epsins
